Some of the results follow. Some results for these compounds are left out of this collection, so the calls shown say nothing about other tests.
test: TAG lipid buildup reduction in H9c2 cells – cell-based, uHTS, fluorescence, primary screen (AID 651582); conditions: Nile Red lipid (TAG) fluorescence, DAPI nuclei count viability, at 12.5 µM, cells loaded with 200 µM oleic acid

| SMILES | DAPI activity (viability loss) [%] |
| --- | --- |
| Cc1ccccc1C(=O)NCC1(N2CCCCC2)CCCCC1 | -7.48 |
| C=CCN1CCN(CCOC(=O)C(O)(c2ccccc2)c2ccccc2)CC1 | -6.9 |
| O=C(NCC1(N2CCCCC2)CCCCC1)c1cc([N+](=O)[O-])ccc1Cl | 3.68 |
| CCN(CC)CC(C)C(C)OC(=O)C(O)(c1ccccc1)c1ccccc1 (stereo unspecified) | 13.4 |
| CC(C)N1C(=O)CC2(CCN(CCOC(=O)C(O)(c3ccccc3)c3ccccc3)CC2)C1=O | -0.92 |
| O=C(OC1CN2CCC1CC2)C(CO)(c1ccccc1)c1ccccc1 (stereo unspecified) | 4.63 |
| C=C(C)C#CC(O)(C(=O)OC1CCN(C)CC1)c1ccccc1 (stereo unspecified) | 6.17 |
| COc1ccc(Br)c(C(=O)NCC2(N3CCCCC3)CCCCC2)c1 | 4.68 |
| O=C(OCCN1CCCC1)C(O)(c1ccccc1)c1ccccc1 | 1.98 |
| CN(C)c1cccc(C(=O)NCC2(N(C)C)CCCCC2)c1 | -0.647 |
| COc1cccc(C(=O)NCC2(N3CCCCC3)CCCCC2)c1 | -0.6 |
